Results are given in words; binding and its absence hold for the method and conditions named. In cells and extracts the contact can be indirect. Sequences can lack the tags named with a protein.

The target in this assay is T1, FLAG-tagged full-length NLRP1 (human) (UniProt Q9C000).
T1 sequence: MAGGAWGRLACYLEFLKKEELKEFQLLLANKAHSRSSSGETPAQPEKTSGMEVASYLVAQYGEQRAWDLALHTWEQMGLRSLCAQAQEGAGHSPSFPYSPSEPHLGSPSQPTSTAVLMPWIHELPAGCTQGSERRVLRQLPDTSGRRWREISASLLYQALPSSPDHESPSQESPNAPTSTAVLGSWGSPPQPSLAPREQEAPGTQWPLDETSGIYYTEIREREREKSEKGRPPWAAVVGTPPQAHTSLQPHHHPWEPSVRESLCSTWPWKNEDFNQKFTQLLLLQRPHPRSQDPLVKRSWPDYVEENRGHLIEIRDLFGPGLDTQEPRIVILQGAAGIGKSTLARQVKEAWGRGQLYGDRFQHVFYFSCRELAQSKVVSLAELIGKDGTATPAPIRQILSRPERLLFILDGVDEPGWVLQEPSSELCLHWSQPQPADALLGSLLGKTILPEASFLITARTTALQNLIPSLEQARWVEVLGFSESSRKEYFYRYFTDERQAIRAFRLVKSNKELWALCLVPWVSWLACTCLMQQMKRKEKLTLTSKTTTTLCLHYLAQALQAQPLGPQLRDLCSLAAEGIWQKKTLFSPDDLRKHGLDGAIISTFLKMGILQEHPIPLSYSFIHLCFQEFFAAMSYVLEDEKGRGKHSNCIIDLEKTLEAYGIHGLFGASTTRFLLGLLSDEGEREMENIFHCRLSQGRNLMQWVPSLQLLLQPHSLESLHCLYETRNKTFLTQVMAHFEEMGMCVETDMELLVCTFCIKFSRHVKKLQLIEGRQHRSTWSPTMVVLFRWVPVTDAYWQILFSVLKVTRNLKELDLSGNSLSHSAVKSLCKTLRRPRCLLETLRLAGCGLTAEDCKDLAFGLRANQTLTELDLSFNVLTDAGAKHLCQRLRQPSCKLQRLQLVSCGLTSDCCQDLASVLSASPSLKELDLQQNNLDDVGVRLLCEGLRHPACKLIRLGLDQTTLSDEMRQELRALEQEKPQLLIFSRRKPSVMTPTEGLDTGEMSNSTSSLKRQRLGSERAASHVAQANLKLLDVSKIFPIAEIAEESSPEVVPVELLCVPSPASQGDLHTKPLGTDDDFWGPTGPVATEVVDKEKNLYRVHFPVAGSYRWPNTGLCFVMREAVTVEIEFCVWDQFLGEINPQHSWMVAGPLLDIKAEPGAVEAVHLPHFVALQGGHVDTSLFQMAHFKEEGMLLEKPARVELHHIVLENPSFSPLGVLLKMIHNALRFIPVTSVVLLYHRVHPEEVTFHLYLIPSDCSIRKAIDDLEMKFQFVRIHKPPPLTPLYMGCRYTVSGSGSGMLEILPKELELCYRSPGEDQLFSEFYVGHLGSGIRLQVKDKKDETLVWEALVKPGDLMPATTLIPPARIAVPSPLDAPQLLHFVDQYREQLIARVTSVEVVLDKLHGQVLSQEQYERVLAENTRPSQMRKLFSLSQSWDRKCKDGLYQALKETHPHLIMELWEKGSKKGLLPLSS
The experiment in a line: co-IP.

In the case of “DPP9L lacking the hydrolase domain (human) (domain or fragment)”, the binding entry is recorded as “no binding”.
